These are yes or no findings as the source states them, for the method shown. In cells and extracts the contact can be indirect. Some results given as binding are weak or reduced against the parent protein; the word gives no strength. For part of these data: Where a sequence is shown, tags or fusion partners need not be part of it.
Experiments:
[1] = molecular target: Flag-Msx1 (human Msx1-expression construct, full-length Msx1 cDNA in the 3x-Flag vector) (human) (UniProt P28360); assay: co-IP; 293T cells transfected with Flag-Msx1 and pcDNA-VEGFR1 or pcDNA-VEGFR2; whole cell lysates; immunoprecipitation with anti-Flag, immunoblot with anti-VEGFR1 or anti-VEGFR2 antibody
[2] = molecular target: Msx1 expressed from the adenovirus vector Ad-Msx1 (full-length mouse Msx1 cDNA) (mouse) (UniProt P13297); assay: co-IP; HEK 293 cells infected with Ad-Msx1 and transiently transfected with Flag-PIASy; RIPA lysates; immunoprecipitation with anti-Msx1 antibody, immunoblot with anti-Flag antibody

By UniProt entry, the sequences of proteins in these tests, tags left out. Residues count along the entry.
UniProt P28360: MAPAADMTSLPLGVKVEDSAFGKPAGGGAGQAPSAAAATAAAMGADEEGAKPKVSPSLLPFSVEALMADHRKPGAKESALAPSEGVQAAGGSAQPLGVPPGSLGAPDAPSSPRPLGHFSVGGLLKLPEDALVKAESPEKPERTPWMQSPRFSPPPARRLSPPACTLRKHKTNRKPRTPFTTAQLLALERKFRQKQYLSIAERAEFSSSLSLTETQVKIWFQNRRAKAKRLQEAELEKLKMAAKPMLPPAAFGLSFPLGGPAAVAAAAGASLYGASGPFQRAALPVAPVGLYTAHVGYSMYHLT
UniProt P13297: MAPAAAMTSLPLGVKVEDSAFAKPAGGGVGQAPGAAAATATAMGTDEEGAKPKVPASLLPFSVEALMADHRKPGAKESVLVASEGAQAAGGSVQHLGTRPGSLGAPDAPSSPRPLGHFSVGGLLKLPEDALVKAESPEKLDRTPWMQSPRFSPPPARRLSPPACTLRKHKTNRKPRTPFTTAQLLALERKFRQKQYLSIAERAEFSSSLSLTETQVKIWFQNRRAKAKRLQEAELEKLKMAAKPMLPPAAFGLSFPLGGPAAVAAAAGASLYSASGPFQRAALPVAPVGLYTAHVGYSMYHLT
UniProt P17948, residues 27-1338: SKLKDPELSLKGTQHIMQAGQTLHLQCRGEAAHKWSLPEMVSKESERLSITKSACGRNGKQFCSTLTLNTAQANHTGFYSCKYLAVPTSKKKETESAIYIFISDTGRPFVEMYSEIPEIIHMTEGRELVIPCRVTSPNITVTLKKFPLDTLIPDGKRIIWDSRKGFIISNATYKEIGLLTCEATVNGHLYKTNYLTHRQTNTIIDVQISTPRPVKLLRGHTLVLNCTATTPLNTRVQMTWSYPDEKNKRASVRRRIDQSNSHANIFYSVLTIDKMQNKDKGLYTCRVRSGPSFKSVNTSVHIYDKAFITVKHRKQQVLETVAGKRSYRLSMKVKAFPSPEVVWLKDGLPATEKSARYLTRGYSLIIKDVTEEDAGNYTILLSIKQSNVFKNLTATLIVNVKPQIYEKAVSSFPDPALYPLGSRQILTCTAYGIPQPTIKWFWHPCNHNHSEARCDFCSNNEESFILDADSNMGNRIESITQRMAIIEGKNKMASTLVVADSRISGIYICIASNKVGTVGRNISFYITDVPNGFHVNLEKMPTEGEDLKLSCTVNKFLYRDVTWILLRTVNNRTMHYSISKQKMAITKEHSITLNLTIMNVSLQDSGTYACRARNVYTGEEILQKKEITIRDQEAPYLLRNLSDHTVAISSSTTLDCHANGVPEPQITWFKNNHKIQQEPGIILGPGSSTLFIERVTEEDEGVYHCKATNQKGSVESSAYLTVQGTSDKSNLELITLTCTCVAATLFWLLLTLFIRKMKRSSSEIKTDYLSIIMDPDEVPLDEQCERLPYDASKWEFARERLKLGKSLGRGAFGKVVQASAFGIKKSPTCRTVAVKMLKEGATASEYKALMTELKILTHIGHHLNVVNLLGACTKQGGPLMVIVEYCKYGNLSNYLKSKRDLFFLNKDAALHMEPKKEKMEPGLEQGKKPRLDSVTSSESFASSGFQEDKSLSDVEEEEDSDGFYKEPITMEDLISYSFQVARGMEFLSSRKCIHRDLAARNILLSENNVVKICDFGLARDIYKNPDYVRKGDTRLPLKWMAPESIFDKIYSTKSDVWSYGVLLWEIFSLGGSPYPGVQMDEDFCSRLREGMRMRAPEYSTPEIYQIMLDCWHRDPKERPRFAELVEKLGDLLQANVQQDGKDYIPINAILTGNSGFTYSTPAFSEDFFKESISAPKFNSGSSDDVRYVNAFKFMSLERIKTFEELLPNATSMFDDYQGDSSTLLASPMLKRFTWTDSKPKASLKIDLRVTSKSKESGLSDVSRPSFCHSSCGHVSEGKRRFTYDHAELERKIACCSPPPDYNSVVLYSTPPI
UniProt P35968, residues 20-1356: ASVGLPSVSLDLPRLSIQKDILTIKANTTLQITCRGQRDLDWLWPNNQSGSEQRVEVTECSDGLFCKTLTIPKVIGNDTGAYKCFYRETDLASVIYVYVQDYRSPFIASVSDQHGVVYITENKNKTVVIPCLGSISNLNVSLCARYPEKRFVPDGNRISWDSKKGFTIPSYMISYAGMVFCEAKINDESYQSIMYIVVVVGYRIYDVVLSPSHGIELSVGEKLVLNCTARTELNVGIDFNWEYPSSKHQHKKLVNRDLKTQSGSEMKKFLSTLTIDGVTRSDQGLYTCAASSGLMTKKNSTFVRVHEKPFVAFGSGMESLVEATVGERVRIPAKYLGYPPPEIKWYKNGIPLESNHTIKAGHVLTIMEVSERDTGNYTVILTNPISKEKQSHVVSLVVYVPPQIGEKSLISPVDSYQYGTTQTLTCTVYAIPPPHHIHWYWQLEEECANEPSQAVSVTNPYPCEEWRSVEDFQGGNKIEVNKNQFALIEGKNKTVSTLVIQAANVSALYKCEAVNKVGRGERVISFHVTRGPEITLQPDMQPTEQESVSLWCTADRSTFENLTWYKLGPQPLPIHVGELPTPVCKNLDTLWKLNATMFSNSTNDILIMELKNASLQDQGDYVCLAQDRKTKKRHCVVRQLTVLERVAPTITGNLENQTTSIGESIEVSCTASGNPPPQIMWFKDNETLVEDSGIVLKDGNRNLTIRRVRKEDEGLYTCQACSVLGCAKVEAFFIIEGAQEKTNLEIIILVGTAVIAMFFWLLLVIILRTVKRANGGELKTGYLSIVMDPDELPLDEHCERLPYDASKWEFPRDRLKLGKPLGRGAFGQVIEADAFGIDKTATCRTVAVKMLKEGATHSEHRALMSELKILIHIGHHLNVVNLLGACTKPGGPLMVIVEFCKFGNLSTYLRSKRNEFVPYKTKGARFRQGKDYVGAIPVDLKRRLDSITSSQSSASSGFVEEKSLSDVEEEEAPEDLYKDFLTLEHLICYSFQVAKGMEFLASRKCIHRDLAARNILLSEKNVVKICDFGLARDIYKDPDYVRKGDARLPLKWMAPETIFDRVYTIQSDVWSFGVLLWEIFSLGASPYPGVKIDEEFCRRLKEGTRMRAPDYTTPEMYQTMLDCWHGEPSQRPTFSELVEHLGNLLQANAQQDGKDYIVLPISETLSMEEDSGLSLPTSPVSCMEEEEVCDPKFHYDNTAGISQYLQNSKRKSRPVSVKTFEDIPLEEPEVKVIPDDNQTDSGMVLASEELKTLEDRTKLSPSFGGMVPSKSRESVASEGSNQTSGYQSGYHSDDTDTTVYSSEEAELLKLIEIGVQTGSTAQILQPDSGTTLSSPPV

binding [1] | binding [2] | Molecule
no binding | – | VEGFR1 expressed from pcDNA-VEGFR1 (from UniProt P17948 27-1338) (receptor)
binds | – | VEGFR2 expressed from pcDNA-VEGFR2 (from UniProt P35968 20-1356) (receptor)
– | binds | Flag-PIASy harboring a full-length PIASy (protein, UniProt Q8N2W9 1-510) MAAELVEAKNMVMSFRVSDLQMLLGFVGRSKSGLKHELVTRALQLVQFDCSPELFKKIKELYETRYAKKNSEPAPQPHRPLDPLTMHSTYDRAGAVPRTPLAGPNIDYPVLYGKYLNGLGRLPAKTLKPEVRLVKLPFFNMLDELLKPTELVPQNNEKLQESPCIFALTPRQVELIRNSRELQPGVKAVQVVLRICYSDTSCPQEDQYPPNIAVKVNHSYCSVPGYYPSNKPGVEPKRPCRPINLTHLMYLSSATNRITVTWGNYGKSYSVALYLVRQLTSSELLQRLKTIGVKHPELCKALVKEKLRLDPDSEIATTGVRVSLICPLVKMRLSVPCRAETCAHLQCFDAVFYLQMNEKKPTWMCPVCDKPAPYDQLIIDGLLSKILSECEDADEIEYLVDGSWCPIRAEKERSCSPQGAILVLGPSDANGLLPAPSVNGSGALGSTGGGGPVGSMENGKPGADVVDLTLDSSSSSEDEEEEEEEEEDEDEEGPRPKRRCPFQKGLVPAC
